Test results published in US20160230205A1 (R P SCHERER TECHNOLOGIES, published 2016).
Results are given in words; binding and its absence hold for the method and conditions named. Some results given as binding are weak or reduced against the parent protein; the word gives no strength. Where a sequence is shown, tags or fusion partners need not be part of it.

Key:
[1] = target: T1, 14 amino acid FGE substrate peptide …; experiment: Michaelis-Menten kinetics from discontinuous RP-HPLC activity assay
T1 sequence (peptide): ALCTPSRGSLFTGR

[2] = target: T1, 14 amino acid FGE substrate peptide …; experiment: RP-HPLC and LC-MS monitoring of substrate disulfide side products during turnover

- binding [1]: binds
- binding [2]: binds
B1: Catalytic core of H. sapiens formylglycine-generating enzyme with TEV protease site and C-terminal His6 tag (Hs-cFGE) (enzyme)
chain: DRSLEANAPGPVPGERQLAHSKMVPIPAGVFTMGTDDPQIKQDGEAPARRVTIDAFYMDAYEVSNTEFEKFVNSTGYLTEVAAAPWWLPVKGANWRHPEGPDSTILHRPDHPVLHVSWNDAVAYCTWAGKRLPTEAEWEYSCRGGLHNRLFPWGNKLQPKGQHYANIWQGEFPVTNTGEDGFQGTAPVDAFPPNGYGLYNIVGNAWEWTSDWWTVHHSVEETLNPKGPPSGKDRVKKGGSYMCHRSYCYRYRCAARSQNTPDSSASNLGFRCAADRLPTMDKGENLYFQGHHHHHH
